Measurements published in paper PMC7862700.
Some of the results follow. Construct or isoform of the protein are uncertain.

target: T1, ELF2 (UniProt Q15723); test: DAPPL (digital affinity profiling via proximity ligation, sequencing); settings: 10 mM Tris-HCl pH 7.5, 50 mM NaCl, 1 mM DTT, 4% glycerol, room temperature, 30 min; GST-TFs on glutathione beads, 16-mer random dsDNA library, 0.1% …; high values mean tight binding; double strand, one strand shown; scale: fold enrichment (6-mer frequency, TF over GST control)
T1 sequence: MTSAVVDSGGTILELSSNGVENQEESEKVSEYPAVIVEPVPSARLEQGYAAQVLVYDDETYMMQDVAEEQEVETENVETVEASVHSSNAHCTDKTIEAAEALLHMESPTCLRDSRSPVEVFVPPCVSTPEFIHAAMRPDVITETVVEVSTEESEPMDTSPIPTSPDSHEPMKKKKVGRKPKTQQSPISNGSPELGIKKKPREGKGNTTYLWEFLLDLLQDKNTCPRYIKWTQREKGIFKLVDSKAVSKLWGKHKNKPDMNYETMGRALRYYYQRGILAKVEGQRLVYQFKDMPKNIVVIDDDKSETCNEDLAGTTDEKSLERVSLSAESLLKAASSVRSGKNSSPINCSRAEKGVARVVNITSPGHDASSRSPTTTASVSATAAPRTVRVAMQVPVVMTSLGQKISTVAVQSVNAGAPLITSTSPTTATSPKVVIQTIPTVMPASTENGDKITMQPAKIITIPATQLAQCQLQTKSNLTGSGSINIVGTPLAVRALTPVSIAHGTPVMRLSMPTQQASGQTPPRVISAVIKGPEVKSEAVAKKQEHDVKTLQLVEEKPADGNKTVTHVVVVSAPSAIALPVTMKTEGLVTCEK

Sequence | binding signal
TTATGT | 1.24
TATCGT | 1.07
TTAAGC | 1.11
AATGCC | 1.09
TTTAGG | 1.02
ACTGCG | 1.26
TGCACT | 1.45
TATTAA | 1.14
TATTCG | 1.13
AGCTAC | 1.11
TCTTCA | 1.14
ATACTA | 1.11
GATCTC | 1.16
TAAAAG | 1.15
CTTTTT | 1.32
GCTATT | 1.3
GTTCTA | 1.17
GGTTTA | 1.07
ATCGAA | 1.09
CCCTCC | 1.37

Sequence | binding signal
CATACT | 1.35
ACATCC | 3.06
TGATCT | 1.16
TCTACT | 1.42
CTTCAG | 1.25
GATTAC | 1.16
GACTCT | 1.23
CTTGTT | 1.22
GCCTTT | 1.22
GTATTC | 1.3
CATATT | 1.23
TTATGA | 1.07
ACTTAA | 1.14
AAAATC | 1.15
CATATA | 1.06
ACCTGC | 1.39
TTGTAC | 1.34
TCCCAC | 1.36
TGACTC | 1.23
AACGTC | 1.09

Pulled one by one from the list above (2):
Sequence | binding signal
ACATCC | 3.06
ACCTGC | 1.39
